Reference: ChEMBL document CHEMBL4602682, “Ikoamide, an Antimalarial Lipopeptide from an Okeania sp. Marine Cyanobacterium” (J Nat Prod, 2020)

Test system: HeLa
Experiment: Cytotoxicity against human HeLa cells incubated for 72 hrs by MTT assay
Type: ADME, cell-based

Compound: COc1cccc2c1C(=O)c1c(O)c3c(c(O)c1C2=O)C[C@@](O)(C(=O)CO)C[C@@H]3O[C@H]1C[C@H](N)[C@H](O)[C@H](C)O1 [DOXORUBICIN]
- IC50: 240 nM
